Laboratory results published in patent US7018812.
These are yes or no findings as the source states them, for the method shown. Some binding calls cover weakened binding; strength is not graded here.

Sequences of proteins named here, by UniProt entry; tags and fusion partners are left off. A change or cut given only in a name is not applied to a line headed by its entry.
UniProt P21453: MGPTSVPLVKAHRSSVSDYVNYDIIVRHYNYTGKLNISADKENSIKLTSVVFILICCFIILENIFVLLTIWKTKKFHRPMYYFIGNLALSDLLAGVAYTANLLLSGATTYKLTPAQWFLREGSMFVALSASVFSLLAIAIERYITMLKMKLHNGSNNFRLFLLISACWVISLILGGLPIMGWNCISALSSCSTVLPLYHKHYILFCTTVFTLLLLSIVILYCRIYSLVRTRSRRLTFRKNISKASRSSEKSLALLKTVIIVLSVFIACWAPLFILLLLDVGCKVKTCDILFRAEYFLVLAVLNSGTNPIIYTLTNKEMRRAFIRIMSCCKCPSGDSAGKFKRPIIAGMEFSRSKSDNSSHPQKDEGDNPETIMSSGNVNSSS
UniProt P18901: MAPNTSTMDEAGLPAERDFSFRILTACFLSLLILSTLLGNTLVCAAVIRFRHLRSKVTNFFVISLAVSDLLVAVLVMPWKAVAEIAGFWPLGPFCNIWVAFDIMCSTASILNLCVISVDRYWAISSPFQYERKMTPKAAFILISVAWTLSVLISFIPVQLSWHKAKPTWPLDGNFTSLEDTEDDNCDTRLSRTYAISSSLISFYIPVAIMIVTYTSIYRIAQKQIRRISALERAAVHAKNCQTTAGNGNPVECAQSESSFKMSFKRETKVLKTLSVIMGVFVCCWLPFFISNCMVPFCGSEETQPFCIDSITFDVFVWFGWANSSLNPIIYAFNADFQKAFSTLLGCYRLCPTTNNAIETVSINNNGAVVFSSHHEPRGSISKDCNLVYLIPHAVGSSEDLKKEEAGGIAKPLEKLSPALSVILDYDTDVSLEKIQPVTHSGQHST
UniProt P13945: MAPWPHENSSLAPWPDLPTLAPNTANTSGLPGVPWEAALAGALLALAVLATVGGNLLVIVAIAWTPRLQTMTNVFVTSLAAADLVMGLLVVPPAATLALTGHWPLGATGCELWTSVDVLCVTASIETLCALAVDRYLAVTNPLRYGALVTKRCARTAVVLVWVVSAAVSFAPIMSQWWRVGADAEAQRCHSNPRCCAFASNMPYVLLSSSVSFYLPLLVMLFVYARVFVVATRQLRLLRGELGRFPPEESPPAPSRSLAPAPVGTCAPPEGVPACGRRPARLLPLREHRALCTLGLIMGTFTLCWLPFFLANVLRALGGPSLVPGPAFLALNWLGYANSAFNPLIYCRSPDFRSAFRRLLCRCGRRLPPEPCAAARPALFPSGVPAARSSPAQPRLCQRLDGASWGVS
UniProt P29067: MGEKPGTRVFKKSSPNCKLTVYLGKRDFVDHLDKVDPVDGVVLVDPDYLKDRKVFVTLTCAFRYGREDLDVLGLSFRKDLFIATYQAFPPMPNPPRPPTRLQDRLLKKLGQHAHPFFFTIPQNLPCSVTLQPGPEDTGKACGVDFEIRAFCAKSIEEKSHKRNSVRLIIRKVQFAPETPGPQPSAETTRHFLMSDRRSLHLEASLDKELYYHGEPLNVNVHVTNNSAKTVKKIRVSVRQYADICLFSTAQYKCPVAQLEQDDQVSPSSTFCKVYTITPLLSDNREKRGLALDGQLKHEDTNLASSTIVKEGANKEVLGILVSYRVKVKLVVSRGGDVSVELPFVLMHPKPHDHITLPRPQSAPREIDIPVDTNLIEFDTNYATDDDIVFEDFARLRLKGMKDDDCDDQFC

Assays:
[1] = biological target: Edg1R-V2R chimera expressed from the pEArrB-1/Edg1R vector (Homo sapiens (Human)) (UniProt P21453); assay: confocal microscopy of βarrestin2-GFP in HEK-293 cells; sphingosine-1-phosphate
[2] = biological target: D1AR-V2R chimera expressed from the pEArrB-1/D1AR vector (Rattus norvegicus (Rat)) (UniProt P18901); assay: confocal microscopy of βarrestin2-GFP in HEK-293 cells; dopamine
[3] = biological target: 5HT1AR-V2R chimera expressed from the pEArrB-1/5HT1AR vector (Homo sapiens (Human)) (UniProt P08908); assay: confocal microscopy of βarrestin2-GFP in HEK-293 cells; serotonin
[4] = biological target: β3AR-V2R chimera expressed from the pEArrB-1/β3AR vector (Homo sapiens (Human)) (UniProt P13945); assay: confocal microscopy of βarrestin2-GFP in HEK-293 cells; isoproterenol

Measured: binding

βarr2-GFP (conjugate of β-arrestin 2 and Green Fluorescent Protein) (from UniProt P29067 1-410; P42212 1-238)
binds: [1] | [2] | [3] | [4]
